The supplement of paper PMC10849652
Some of the results follow.

The chains behind the UniProt entries cited, without tags or fusion partners. Where a name states a change or a piece, a line headed by the entry shows the natural chain unless it says otherwise.
UniProt Q8WV74: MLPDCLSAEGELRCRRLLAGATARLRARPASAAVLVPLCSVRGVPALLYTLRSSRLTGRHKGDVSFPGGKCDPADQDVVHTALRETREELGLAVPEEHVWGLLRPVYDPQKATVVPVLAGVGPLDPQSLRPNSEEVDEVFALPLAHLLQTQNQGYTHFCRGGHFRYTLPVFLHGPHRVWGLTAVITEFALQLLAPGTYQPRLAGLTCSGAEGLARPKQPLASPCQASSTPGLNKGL
UniProt Q8TCD5: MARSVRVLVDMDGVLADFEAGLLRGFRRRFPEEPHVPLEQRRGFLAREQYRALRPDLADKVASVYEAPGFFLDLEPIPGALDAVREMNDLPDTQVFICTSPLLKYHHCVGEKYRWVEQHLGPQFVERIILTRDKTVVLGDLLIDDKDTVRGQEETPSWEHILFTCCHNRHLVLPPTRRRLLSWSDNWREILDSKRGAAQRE
UniProt Q9BV86: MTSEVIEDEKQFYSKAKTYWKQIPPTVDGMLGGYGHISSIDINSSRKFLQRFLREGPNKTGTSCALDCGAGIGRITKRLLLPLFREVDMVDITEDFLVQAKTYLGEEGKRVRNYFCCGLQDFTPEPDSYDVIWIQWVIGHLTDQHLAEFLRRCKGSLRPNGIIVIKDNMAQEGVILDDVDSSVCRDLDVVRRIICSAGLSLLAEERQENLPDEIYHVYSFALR
UniProt P20393: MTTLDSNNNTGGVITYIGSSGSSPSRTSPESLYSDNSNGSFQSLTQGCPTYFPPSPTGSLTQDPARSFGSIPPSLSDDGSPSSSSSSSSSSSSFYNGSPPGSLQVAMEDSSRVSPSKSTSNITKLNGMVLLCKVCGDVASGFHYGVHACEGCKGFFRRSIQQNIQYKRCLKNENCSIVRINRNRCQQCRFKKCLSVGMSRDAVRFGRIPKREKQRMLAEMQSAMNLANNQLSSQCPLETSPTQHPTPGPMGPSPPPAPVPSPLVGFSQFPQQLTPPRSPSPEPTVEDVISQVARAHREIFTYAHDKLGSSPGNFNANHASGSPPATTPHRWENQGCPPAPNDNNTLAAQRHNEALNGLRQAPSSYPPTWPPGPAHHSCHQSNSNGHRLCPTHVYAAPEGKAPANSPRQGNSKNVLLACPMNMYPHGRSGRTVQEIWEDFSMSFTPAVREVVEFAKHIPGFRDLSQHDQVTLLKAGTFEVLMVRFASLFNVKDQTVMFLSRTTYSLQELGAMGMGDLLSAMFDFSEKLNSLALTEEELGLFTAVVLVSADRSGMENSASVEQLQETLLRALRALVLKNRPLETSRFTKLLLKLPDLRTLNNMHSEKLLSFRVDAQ
UniProt Q96L73: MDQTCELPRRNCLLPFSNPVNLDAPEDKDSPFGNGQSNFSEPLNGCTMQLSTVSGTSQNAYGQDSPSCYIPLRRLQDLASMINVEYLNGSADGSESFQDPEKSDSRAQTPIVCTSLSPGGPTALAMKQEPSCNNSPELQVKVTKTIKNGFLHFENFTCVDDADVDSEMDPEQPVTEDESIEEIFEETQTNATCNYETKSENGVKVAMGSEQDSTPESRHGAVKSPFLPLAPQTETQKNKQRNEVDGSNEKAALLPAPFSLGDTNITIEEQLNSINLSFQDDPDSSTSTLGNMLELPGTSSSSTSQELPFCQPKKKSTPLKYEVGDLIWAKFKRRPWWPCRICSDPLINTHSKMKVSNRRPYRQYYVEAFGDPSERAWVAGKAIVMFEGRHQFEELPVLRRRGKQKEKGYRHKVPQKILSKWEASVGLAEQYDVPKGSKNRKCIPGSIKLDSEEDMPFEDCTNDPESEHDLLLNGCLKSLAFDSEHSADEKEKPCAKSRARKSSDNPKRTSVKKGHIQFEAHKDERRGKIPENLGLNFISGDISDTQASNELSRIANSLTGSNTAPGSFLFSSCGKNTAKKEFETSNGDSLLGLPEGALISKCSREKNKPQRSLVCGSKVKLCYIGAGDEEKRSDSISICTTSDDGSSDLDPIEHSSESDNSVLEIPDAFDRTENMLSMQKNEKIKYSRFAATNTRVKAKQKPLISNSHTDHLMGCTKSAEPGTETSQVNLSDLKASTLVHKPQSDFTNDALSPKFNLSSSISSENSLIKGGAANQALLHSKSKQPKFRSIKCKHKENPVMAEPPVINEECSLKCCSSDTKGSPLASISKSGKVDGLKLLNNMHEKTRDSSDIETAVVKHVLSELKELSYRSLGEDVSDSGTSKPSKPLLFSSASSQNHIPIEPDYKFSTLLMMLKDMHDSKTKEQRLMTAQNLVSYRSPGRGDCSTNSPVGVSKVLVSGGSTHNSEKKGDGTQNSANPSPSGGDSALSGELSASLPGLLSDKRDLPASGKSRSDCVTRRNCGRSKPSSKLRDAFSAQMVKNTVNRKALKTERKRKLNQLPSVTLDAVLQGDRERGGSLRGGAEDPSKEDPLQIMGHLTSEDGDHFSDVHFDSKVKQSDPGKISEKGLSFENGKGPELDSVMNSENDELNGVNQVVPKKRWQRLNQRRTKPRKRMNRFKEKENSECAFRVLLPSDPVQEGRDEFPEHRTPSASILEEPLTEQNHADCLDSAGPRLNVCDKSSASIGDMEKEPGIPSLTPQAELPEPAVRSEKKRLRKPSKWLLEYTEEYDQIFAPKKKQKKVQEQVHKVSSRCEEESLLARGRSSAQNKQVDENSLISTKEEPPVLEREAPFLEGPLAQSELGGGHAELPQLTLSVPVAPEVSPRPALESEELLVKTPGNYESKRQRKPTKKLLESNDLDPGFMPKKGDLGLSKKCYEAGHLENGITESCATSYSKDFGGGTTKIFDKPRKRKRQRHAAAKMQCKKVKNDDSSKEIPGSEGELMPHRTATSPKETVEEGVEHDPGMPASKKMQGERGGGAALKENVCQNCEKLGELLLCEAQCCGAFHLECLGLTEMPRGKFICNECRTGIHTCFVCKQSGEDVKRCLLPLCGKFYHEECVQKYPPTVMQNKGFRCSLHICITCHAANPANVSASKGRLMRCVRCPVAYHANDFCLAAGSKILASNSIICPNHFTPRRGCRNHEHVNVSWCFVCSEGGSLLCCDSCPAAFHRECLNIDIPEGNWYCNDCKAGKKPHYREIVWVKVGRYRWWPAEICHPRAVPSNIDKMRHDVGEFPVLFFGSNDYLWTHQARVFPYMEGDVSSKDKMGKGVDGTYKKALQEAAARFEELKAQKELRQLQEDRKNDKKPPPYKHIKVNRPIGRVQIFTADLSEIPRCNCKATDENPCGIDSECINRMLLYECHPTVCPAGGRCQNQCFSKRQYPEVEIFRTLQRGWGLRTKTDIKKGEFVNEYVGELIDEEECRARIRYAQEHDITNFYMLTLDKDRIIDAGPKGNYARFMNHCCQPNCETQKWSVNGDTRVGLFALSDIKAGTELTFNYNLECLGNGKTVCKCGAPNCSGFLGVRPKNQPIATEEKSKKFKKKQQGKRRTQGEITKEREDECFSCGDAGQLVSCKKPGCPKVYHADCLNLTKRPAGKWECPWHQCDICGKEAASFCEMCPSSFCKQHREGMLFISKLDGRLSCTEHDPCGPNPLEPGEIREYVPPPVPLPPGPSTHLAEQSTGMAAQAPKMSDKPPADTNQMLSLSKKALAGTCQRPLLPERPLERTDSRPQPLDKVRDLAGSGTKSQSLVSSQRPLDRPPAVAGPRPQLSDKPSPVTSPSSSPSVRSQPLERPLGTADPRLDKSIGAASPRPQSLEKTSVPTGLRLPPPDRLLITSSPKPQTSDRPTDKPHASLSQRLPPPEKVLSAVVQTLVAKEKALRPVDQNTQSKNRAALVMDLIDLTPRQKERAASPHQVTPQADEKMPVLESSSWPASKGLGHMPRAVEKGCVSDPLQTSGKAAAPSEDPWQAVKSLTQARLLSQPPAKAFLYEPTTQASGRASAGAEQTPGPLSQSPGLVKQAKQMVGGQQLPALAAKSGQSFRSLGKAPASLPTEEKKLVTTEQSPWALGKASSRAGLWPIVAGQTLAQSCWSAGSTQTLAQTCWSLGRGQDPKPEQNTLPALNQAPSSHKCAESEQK
UniProt P69849: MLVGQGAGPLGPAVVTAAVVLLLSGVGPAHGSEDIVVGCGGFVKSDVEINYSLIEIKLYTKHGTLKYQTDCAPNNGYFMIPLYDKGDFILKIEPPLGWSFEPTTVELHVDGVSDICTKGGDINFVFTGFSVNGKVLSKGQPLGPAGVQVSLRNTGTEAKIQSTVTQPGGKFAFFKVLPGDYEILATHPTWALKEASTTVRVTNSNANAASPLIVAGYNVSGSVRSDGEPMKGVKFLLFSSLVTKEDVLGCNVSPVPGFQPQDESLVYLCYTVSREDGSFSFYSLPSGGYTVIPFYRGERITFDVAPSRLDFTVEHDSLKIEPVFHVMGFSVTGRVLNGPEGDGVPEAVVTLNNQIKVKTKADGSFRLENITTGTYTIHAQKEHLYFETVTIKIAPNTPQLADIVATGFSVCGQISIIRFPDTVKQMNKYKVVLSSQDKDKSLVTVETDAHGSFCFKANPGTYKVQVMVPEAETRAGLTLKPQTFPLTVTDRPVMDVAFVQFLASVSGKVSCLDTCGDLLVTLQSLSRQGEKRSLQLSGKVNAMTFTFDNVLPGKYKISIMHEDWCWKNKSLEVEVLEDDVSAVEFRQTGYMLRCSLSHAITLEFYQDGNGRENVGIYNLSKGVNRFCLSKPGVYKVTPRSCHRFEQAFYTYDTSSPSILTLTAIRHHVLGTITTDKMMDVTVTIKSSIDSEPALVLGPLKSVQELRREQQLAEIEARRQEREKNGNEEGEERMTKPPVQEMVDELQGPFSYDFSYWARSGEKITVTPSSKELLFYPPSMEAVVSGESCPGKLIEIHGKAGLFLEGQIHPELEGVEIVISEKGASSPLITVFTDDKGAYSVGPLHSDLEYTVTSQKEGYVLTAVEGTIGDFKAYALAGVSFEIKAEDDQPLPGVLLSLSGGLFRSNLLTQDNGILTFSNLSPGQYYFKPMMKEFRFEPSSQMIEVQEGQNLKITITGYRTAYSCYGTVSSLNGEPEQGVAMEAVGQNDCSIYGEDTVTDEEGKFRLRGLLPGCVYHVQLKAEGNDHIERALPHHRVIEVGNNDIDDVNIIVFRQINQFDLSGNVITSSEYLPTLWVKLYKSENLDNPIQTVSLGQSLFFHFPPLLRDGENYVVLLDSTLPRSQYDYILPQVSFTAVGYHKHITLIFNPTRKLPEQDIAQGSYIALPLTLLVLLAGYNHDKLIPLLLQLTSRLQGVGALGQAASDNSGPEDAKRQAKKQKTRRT
UniProt Q96T66: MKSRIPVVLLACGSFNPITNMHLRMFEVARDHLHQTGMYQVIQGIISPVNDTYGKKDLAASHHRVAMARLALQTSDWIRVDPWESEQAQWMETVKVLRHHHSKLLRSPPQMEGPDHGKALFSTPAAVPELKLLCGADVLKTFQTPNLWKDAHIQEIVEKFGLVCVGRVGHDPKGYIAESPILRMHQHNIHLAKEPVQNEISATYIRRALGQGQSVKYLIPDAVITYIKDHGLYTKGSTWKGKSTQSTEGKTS
UniProt Q96MY1: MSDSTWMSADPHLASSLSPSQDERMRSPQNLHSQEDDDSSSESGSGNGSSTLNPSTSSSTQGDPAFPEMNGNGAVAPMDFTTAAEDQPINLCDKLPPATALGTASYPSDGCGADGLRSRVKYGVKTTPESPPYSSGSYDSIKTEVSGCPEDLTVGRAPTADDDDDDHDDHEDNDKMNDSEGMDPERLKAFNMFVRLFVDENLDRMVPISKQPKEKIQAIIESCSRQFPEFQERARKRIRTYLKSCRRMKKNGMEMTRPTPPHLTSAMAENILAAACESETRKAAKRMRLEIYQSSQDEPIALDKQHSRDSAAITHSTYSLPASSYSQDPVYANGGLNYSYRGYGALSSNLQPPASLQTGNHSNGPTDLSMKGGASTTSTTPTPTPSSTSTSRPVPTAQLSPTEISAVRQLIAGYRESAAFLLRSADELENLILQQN
UniProt P13056: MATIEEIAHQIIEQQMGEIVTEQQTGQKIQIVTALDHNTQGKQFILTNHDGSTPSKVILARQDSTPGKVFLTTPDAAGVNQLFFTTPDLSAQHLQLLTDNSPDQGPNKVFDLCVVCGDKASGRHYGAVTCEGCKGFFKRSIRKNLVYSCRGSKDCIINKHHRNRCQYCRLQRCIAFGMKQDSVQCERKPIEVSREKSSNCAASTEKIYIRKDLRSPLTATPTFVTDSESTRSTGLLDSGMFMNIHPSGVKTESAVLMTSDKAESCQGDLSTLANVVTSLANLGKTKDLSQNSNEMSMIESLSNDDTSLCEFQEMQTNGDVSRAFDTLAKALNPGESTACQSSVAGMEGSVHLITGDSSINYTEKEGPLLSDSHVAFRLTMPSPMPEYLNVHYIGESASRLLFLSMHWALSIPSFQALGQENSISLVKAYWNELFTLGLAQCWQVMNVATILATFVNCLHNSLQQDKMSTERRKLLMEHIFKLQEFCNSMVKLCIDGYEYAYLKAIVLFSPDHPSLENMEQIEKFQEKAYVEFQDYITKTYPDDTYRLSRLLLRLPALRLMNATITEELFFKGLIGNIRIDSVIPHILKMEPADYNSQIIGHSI

How the values were obtained:
Assay in all cases: log2 fold change, soluble protein after heating vs DMSO (PISA); higher = thermal stabilisation; K562 lysate, 10 uM; active = over 0.2 and 3.5 SD of the protein, either way, in both replicates (recomputed)
lapatinib = compound: CS(=O)(=O)CCNCc1ccc(-c2ccc3ncnc(Nc4ccc(OCc5cccc(F)c5)c(Cl)c4)c3c2)o1 [lapatinib]
How it was run: (§1)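 Log-two fold change in thermal stability relative to solvent controls is reported from duplicates. For each sample, crude K562 extract from dounce-homogenised pellets in PBS pH 7.4 with 1 mM MgCl2, at 1 mg/mL protein, was treated with 10 μM compound for 30 min. Aliquots heated for 3 min across 48°C-58°C were pooled, brought to 0.5% NP-40 at 4°C and cleared at 21,000xg for 90 min. The supernatant was quantified by TMTpro 16plex LC-MS/MS with channel sums equalised.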

pictilisib = compound: CS(=O)(=O)N1CCN(Cc2cc3nc(-c4cccc5[nH]ncc45)nc(N4CCOCC4)c3s2)CC1 [pictilisib]
How it was run: as §1

crizotinib = compound: C[C@@H](Oc1cc(-c2cnn(C3CCNCC3)c2)cnc1N)c1c(Cl)ccc(F)c1Cl [crizotinib]
How it was run: as §1

[1] = compound: C[C@H](C1=CC=C(C=C1)C(=O)NC2=C3C=CNC3=NC=C2)N
How it was run: as §1

duvelisib = compound: C[C@H](Nc1ncnc2nc[nH]c12)c1cc2cccc(Cl)c2c(=O)n1-c1ccccc1 [duvelisib]
How it was run: as §1

gandotinib = compound: Cc1cc(Nc2cc(CN3CCOCC3)c3nc(C)c(Cc4ccc(Cl)cc4F)n3n2)n[nH]1 [gandotinib]
How it was run: as §1

tozasertib = compound: Cc1cc(Nc2cc(N3CCN(C)CC3)nc(Sc3ccc(NC(=O)C4CC4)cc3)n2)n[nH]1 [tozasertib]
How it was run: as §1

doramapimod = compound: Cc1ccc(-n2nc(C(C)(C)C)cc2NC(=O)Nc2ccc(OCCN3CCOCC3)c3ccccc23)cc1 [doramapimod]
How it was run: as §1

bafetinib = compound: Cc1ccc(NC(=O)c2ccc(CN3CC[C@H](N(C)C)C3)c(C(F)(F)F)c2)cc1Nc1nccc(-c2cncnc2)n1 [bafetinib]
How it was run: as §1

[2] = compound: Cc1cccc(CC(=O)N2CCc3c2ccc(-c2cn(C)c4ncnc(N)c24)c3F)n1
How it was run: as §1

Measured: log2 fold change

NSMCE4A (UniProt Q9NXX6)
inactive: lapatinib -0.01 | pictilisib -0.019 | crizotinib -0.01 | [1] 0.029 | duvelisib -0.046 | gandotinib -0.022 | tozasertib 0.055 | doramapimod 0.014 | bafetinib 0.016 | [2] 0.045

NT5C (UniProt J3KSX6)
inactive: lapatinib -0.066 | pictilisib 0.134 | bafetinib 0.07

NUDT1 (UniProt P36639)
inactive: lapatinib -0.009 | pictilisib 0.029 | [1] -0.019 | duvelisib 0.05 | gandotinib 0.035 | tozasertib 0.024 | doramapimod -0.028 | bafetinib 0.05 | [2] -0.02

NSD2 (UniProt O96028)
inactive: lapatinib 0.022 | pictilisib 0.086 | crizotinib -0.141 | [1] -0.177 | gandotinib 0.077 | tozasertib -0.041 | doramapimod -0.095 | bafetinib -0.037 | [2] 0.093

NUCKS1 (UniProt Q9H1E3)
inactive: lapatinib 0.003 | pictilisib 0.008 | crizotinib 0.006 | [1] -0.026 | duvelisib 0.032 | gandotinib 0.031 | tozasertib -0.028 | doramapimod -0.008 | bafetinib 0.001 | [2] 0.02

NUDT8 (UniProt Q8WV74)
inactive: lapatinib 0.136 | crizotinib 0.015 | [1] -0.215 | duvelisib 0.029 | gandotinib 0.07 | tozasertib 0.149 | doramapimod 0.033 | [2] 0.07

NT5C (UniProt Q8TCD5)
inactive: lapatinib 0.02 | pictilisib 0.056 | crizotinib 0.016 | [1] 0.162 | duvelisib 0.025 | gandotinib -0.029 | tozasertib -0.001 | doramapimod 0.002 | bafetinib 0.069 | [2] -0.059

NR2C2 isoform 2 (UniProt P49116)
inactive: lapatinib -0.014 | pictilisib -0.025 | crizotinib -0.004 | [1] 0.064 | duvelisib -0.014 | gandotinib -0.079 | tozasertib -0.005 | doramapimod -0.004 | bafetinib 0.145 | [2] -0.025

NOMO2 (UniProt Q5JPE7)
inactive: lapatinib -0.025 | pictilisib -0.038 | crizotinib -0.032 | [1] -0.014 | duvelisib -0.02 | gandotinib 0.007 | tozasertib -0.026 | doramapimod 0.013 | bafetinib -0.027 | [2] 0.044

NSA2 (UniProt O95478)
inactive: lapatinib 0.014 | pictilisib -0.088 | [1] -0.036 | duvelisib -0.055 | gandotinib 0.159 | tozasertib -0.086 | bafetinib 0.064 | [2] 0.221

NTMT1 (UniProt Q9BV86)
inactive: lapatinib -0.008 | pictilisib -0.008 | crizotinib -0.009 | [1] 0.079 | duvelisib -0.026 | gandotinib -0.113 | tozasertib -0.041 | doramapimod 0.025 | bafetinib 0.025 | [2] -0.045

NUB1 (UniProt Q9Y5A7)
inactive: lapatinib -0.002 | pictilisib -0.022 | crizotinib 0.012 | [1] 0.009 | duvelisib -0.004 | gandotinib 0.011 | tozasertib 0.027 | doramapimod -0.023 | bafetinib -0.047 | [2] -0.002

8 neighbouring records from above, for reference:
NSD2 (UniProt O96028)
inactive: lapatinib 0.022 | pictilisib 0.086 | crizotinib -0.141 | [1] -0.177 | gandotinib 0.077 | tozasertib -0.041 | doramapimod -0.095 | bafetinib -0.037 | [2] 0.093

NUCKS1 (UniProt Q9H1E3)
inactive: lapatinib 0.003 | pictilisib 0.008 | crizotinib 0.006 | [1] -0.026 | duvelisib 0.032 | gandotinib 0.031 | tozasertib -0.028 | doramapimod -0.008 | bafetinib 0.001 | [2] 0.02

NUDT8 (UniProt Q8WV74)
inactive: lapatinib 0.136 | crizotinib 0.015 | [1] -0.215 | duvelisib 0.029 | gandotinib 0.07 | tozasertib 0.149 | doramapimod 0.033 | [2] 0.07

NT5C (UniProt Q8TCD5)
inactive: lapatinib 0.02 | pictilisib 0.056 | crizotinib 0.016 | [1] 0.162 | duvelisib 0.025 | gandotinib -0.029 | tozasertib -0.001 | doramapimod 0.002 | bafetinib 0.069 | [2] -0.059

NR2C2 isoform 2 (UniProt P49116)
inactive: lapatinib -0.014 | pictilisib -0.025 | crizotinib -0.004 | [1] 0.064 | duvelisib -0.014 | gandotinib -0.079 | tozasertib -0.005 | doramapimod -0.004 | bafetinib 0.145 | [2] -0.025

NOMO2 (UniProt Q5JPE7)
inactive: lapatinib -0.025 | pictilisib -0.038 | crizotinib -0.032 | [1] -0.014 | duvelisib -0.02 | gandotinib 0.007 | tozasertib -0.026 | doramapimod 0.013 | bafetinib -0.027 | [2] 0.044

NSA2 (UniProt O95478)
inactive: lapatinib 0.014 | pictilisib -0.088 | [1] -0.036 | duvelisib -0.055 | gandotinib 0.159 | tozasertib -0.086 | bafetinib 0.064 | [2] 0.221

NTMT1 (UniProt Q9BV86)
inactive: lapatinib -0.008 | pictilisib -0.008 | crizotinib -0.009 | [1] 0.079 | duvelisib -0.026 | gandotinib -0.113 | tozasertib -0.041 | doramapimod 0.025 | bafetinib 0.025 | [2] -0.045

(further entries)

NOP2 isoform 4 (UniProt P46087)
inactive: lapatinib -0.021 | pictilisib 0.009 | crizotinib -0.033 | [1] -0.037 | duvelisib 0.023 | gandotinib -0.024 | tozasertib 0.032 | doramapimod 0.002 | bafetinib -0.026 | [2] 0.08

NMU (UniProt P48645)
inactive: crizotinib -0.079 | [1] -0.031 | gandotinib -0.169 | tozasertib 0.004 | doramapimod -0.015 | [2] 0.054

NR1D1 (UniProt P20393)
inactive: tozasertib -0.092

NT5C2 (UniProt Q5JUV3)
inactive: crizotinib -0.179 | duvelisib 0.027 | tozasertib -0.009 | doramapimod -0.021

NUMB isoform 2 (UniProt P49757)
inactive: duvelisib 0.023

NUB1 isoform 2 (UniProt Q9Y5A7)
inactive: crizotinib 0.015 | doramapimod 0.063

NOL3 isoform 3 (UniProt O60936)
inactive: lapatinib 0.082 | crizotinib 0.155 | duvelisib 0.195 | doramapimod 0.167

NPLOC4 (UniProt I3L3I1)
inactive: pictilisib 0.145 | crizotinib -0.53 | duvelisib 0.038 | tozasertib -0.216 | doramapimod -0.002 | bafetinib -0.214

NPRL2 (UniProt Q8WTW4)
inactive: crizotinib 0.132 | doramapimod 0.036

NUBPL (UniProt Q8TB37)
inactive: duvelisib 0.027 | tozasertib 0.012

NSD1 (UniProt Q96L73)
inactive: lapatinib -0.027 | [1] -0.02 | duvelisib 0.143 | gandotinib 0.053 | tozasertib 0.04 | [2] -0.002

NSD3 (UniProt Q9BZ95)
inactive: pictilisib -0.12 | crizotinib -0.081 | [1] -0.045 | duvelisib 0.074 | gandotinib 0.235 | tozasertib 0.104 | doramapimod 0.15 | bafetinib -0.023 | [2] 0.035

NMRK1 (UniProt Q9NWW6)
inactive: crizotinib -0.049 | doramapimod 0.055

NOMO3 (UniProt P69849)
inactive: lapatinib -0.002 | crizotinib -0.061 | duvelisib -0.087 | doramapimod 0.014

NTAN1 (UniProt Q96AB6)
inactive: pictilisib 0.05 | crizotinib -0.049 | [1] -0.088 | duvelisib -0.001 | gandotinib 0.039 | tozasertib 0.02 | doramapimod 0 | bafetinib -0.05 | [2] 0.076

NPRL3 (UniProt Q12980)
inactive: crizotinib -0.137 | [1] -0.192 | gandotinib 0.176 | doramapimod -0.011 | [2] 0.276

NUDT22 (UniProt Q9BRQ3)
inactive: lapatinib 0.036 | crizotinib 0.03 | tozasertib -0.026 | doramapimod 0.021

NMNAT3 (UniProt Q96T66)
inactive: pictilisib -0.077 | bafetinib -0.116

NOL4L (UniProt Q96MY1)
inactive: lapatinib 0.081 | [1] -0.098 | duvelisib -0.033 | gandotinib -0.027 | tozasertib -0.098 | [2] -0.059

NRIP3 (UniProt Q9NQ35)
inactive: [1] 0.008 | gandotinib 0.056 | tozasertib -0.11 | [2] -0.061

NR2C1 (UniProt P13056)
inactive: pictilisib 0.071 | crizotinib 0.161 | [1] -0.073 | gandotinib -0.081 | doramapimod -0.178 | bafetinib -0.27 | [2] -0.119

NUDT6 (UniProt P53370)
inactive: crizotinib 0.051 | duvelisib -0.034 | tozasertib 0.132 | doramapimod -0.073

NR3C1 isoform 3 (UniProt P04150)
inactive: pictilisib -0.26 | crizotinib 0.012 | [1] 0.057 | duvelisib 0.046 | gandotinib -0.091 | tozasertib 0.012 | doramapimod -0.005 | bafetinib -0.027 | [2] 0.073

NME4 (UniProt O00746)
inactive: crizotinib -0.02 | tozasertib -0.056 | doramapimod 0.035
